Library screen at single concentrations

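Cell assay of Leishmania donovani living inside macrophages; the read-out is not stated. Tested at 30 µM. The record gives no direction; compounds that gave an IC50 in retests scored well above the rest, so higher reads as stronger inhibition. About 69,000 compounds were tested under these conditions; 1.5% (about 1,000) showed 50% or more at least once.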

Results are given as percent effect. The record does not define 0% and 100%; most values in the screen are far below 50% and negative numbers occur (in some assays of this library far below -100). Compounds were drawn at random from those tested, without regard to their results. Two or more numbers in one place are separate tests of the same structure; such repeats can differ widely.

compound: Cc1ccccc1C(=O)Nc1cnn(CC(=O)NC2CCCC2)c1
percent effect: 19.68

compound: CC(C)N1CCc2nnc(COc3cncnc3)n2CC1.O=C(O)C(F)(F)F
percent effect: 15.49

compound: OCCOc1ccc(NCc2cccc3[nH]ccc23)cn1
percent effect: -9.66

compound: Cc1cc2ccccc2n1CCC(=O)NCCCc1nnc(N)s1
percent effect: 18.88

compound: CC(C)c1nc(CNC2CCN(C(=O)OC(C)(C)C)CC2)cs1
percent effect: 30.09

compound: CC(C)C(=O)N1CCCC12CCN(C(=O)c1ccno1)C2 (configuration not stated)
percent effect: 12.01

compound: Cc1noc(C)c1CNC(=O)N1CCC(CN2CCC(C)CC2)CC1
percent effect: 32.99

compound: [H][C@]12CC[C@]([H])(CN(Cc3cn(C)nc3C)C1)N(Cc1c(C)noc1C)C2=O
percent effect: 16.01

compound: [H][C@@]12CN(C(=O)c3ccsc3)C[C@]1([H])C(=O)N(Cc1cccc(F)c1)C2
percent effect: -7.487

compound: COc1cccc(-c2cnnc(N(C)CCC3CCCCO3)n2)c1 (configuration not stated)
percent effect: 9.284

compound: CN1CC(C)(C)CN(C(=O)CCc2ccccc2)CC1=O
percent effect: -10.67

compound: CCC1(CO)CCCN(Cc2nccn2Cc2ccccc2)C1 (configuration not stated)
percent effect: 1.758

compound: O=C(Nc1c(N2CCCC2)cccc1N1CCCC1)c1cnccn1
percent effect: 2.563

compound: CCc1nc(N2CCC3(CC2)OCCCC3O)ncc1C (configuration not stated)
percent effect: 4.132

compound: CS(=O)(=O)NCc1cc(-c2cc(F)cc(F)c2)nc(N2CC[C@H](O)C2)n1
percent effect: -2.447 & 23.28

compound: O=C(O)C(F)(F)F.O=C(O)C(F)(F)F.[H][C@@]12CCN(Cc3cnn(C)c3)[C@@]1([H])CCN2Cc1ccc2c(c1)OCO2
percent effect: 11.11

compound: COCCn1c(-c2cccc(OC)c2)cnc1NC(=O)NC1CCCC1
percent effect: 9.927 & 12.53

compound: CCC(O)(CNCc1cc[nH]n1)c1ccc(Br)cc1 (configuration not stated)
percent effect: 13.61

compound: Cc1nccc(N[C@H]2CN(CCC(=O)NC3CCCC3)C[C@@H]2C2CC2)n1
percent effect: 15.68

compound: CN(C)C(=O)CN1CCN(c2cc(N3CCCC3CO)ncn2)CC1 (configuration not stated)
percent effect: -12.93

compound: CC(C)Oc1ccc(CN2CCCC(N3CCCC3)C2)cc1CO (configuration not stated)
percent effect: -36.69

compound: CC(Cn1cccn1)NC(=O)N(C)Cc1ccsc1 (configuration not stated)
percent effect: 4.199

compound: O=C(CCNc1ncccn1)N1CCCN(c2nccs2)CC1
percent effect: 6.835

compound: O=c1c(-c2ccnc(NC3CCOCC3)n2)cnc2sc(Cl)cn12
percent effect: -4.635

compound: Cc1cnn(C(C)C2CC2)c1NC(=O)c1cnccn1 (configuration not stated)
percent effect: -18.01

compound: Cc1nnc(CN2CCC3(CCC(=O)N([C@H]4CC[C@H](O)CC4)C3)CC2)o1
percent effect: -21.98

compound: [H][C@]1([C@H](O)c2ccc(NC(=O)COC)cc2)COCC(=O)N1C
percent effect: 23.64

compound: Cn1c(Cn2cccn2)nnc1C1CCN(Cc2cccnc2N)CC1
percent effect: -14.79

compound: CC(C(=O)N1CCC(Nc2cccnn2)CC1)n1ccnc1 (configuration not stated)
percent effect: 9.561

For reference, 2 entries once more:

compound,percent effect
[H][C@]1([C@H](O)c2ccc(NC(=O)COC)cc2)COCC(=O)N1C,23.64
CCc1nc(N2CCC3(CC2)OCCCC3O)ncc1C (configuration not stated),4.132

The values are deposited in ChEMBL (CHEMBL3988442, “University of Dundee, Small-Polar-MMV Screening Library” (2021)).